Residue numbers refer to the chain shown, from its start. These are yes or no findings as the source states them, for the method shown. Binding seen in cells or lysates may run through a third protein. Some entries that bind do so weakly or less than the wild type. Sequences can lack the tags named with a protein.
Tests used:
[1] = target: T1, Flag-tagged RecQL4 K508M (helicase domain mutant) (human) (UniProt O94761); assay: co-IP; anti-Flag M2 affinity gel; whole-cell lysates of transfected 293T cells, 1.0 mg protein in lysis buffer (50 mM Tris-HCl pH 7.5, 150 mM NaCl, 1% NP-40, 5 mM EDTA, 5 mM EGTA); 4 °C, 3-4 h; Western blot
T1 sequence: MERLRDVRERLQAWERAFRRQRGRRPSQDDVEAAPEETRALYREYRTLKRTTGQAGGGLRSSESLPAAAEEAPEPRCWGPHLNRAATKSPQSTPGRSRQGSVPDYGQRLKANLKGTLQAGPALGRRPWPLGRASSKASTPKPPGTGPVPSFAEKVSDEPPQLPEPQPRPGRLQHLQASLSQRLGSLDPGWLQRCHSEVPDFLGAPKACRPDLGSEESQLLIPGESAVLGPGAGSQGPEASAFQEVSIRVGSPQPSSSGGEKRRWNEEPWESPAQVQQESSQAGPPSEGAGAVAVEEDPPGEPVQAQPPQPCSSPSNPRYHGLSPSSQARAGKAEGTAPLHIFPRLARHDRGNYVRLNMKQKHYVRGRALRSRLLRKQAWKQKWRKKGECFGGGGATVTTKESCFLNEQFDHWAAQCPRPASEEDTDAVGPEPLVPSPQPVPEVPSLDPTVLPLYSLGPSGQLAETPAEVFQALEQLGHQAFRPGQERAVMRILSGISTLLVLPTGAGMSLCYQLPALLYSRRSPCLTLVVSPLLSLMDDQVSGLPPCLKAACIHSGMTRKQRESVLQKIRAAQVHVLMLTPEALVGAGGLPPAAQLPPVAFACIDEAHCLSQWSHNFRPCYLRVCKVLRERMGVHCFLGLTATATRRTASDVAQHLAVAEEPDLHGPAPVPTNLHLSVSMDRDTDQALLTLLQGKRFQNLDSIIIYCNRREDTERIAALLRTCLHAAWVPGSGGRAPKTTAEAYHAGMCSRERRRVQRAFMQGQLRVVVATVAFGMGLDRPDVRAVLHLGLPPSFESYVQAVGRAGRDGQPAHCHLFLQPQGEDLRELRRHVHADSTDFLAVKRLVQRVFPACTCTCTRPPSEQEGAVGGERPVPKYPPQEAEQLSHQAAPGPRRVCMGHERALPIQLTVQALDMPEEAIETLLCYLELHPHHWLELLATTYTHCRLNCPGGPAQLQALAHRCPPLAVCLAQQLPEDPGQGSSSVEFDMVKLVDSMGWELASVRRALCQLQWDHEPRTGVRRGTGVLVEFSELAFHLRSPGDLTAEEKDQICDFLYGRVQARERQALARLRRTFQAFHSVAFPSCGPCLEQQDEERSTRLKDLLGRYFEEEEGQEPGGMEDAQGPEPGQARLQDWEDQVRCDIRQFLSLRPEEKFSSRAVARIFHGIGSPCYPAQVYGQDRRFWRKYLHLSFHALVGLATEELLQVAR

Protein sequences, listed by entry. Tags and fused reporters are not part of them.
UniProt Q96GD4: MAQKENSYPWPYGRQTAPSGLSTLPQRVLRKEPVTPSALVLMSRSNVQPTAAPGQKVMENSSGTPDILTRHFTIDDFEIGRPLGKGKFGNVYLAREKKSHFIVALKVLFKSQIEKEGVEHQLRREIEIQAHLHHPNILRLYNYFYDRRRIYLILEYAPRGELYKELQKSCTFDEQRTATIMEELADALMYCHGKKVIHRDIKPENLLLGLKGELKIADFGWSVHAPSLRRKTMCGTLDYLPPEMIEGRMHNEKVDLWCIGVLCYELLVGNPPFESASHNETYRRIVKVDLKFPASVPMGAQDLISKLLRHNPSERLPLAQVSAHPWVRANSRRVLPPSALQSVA

[2] = target: T2, Flag-tagged full-length RecQL4 (human) (UniProt O94761); assay: as above
T2 sequence: T1 sequence with M508K

binding [1]: binds
binding [2]: binds
Substance: endogenous (native) Aurora B kinase (AURKB) of 293T cells (from UniProt Q96GD4 1-344)

— paper PMC6134139
